This is an account of results in PubChem BioAssay AID445 (National Center for Advancing Translational Sciences (NCATS), 2006).

Each structure is given as a SMILES string. This is one part of the list. These are further read-outs of the screen, such as a control signal, another cell line or another target. No call is given for them. Most of these compounds were active or inconclusive in the main read-out, so they are no random draw. Words in brackets tell the shape of the fitted curve; partial curves, single points and poor fits give uncertain potencies.

As usually defined, the AC50 is the concentration giving half of the maximal activity seen.

The nature of this assay: IkB Signaling. The conditions noted are these: ABC-DLBCL IkBa-CBG/CBR dual luciferase ratio (green luciferase fused to IkBa over red control in OCI-Ly3 lymphoma cells), 4 h. The procedure, abridged: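 In this assay, an IκBα–CBG68 fusion accumulates when IKK-driven degradation is blocked; native CBR normalizes for cell number. OCI-Ly3 cells were treated 4 h with compound and doxycycline, then green and red light read after Chroma-Glo addition.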

The mark [1] stands for this setting: measured here: control luc red channel unless noted.

On to `CCOc1ccc2nc(NC(=O)C3CCCN(S(=O)(=O)c4cccs4)C3)sc2c1` (stereo not drawn), for which the AC50 under setting [1] is 31.6 µM [falling, single point]. Turning to `COc1ccc(NC(=O)C(c2ccccc2)N2Cc3ccccc3C2=O)cc1` (stereo not drawn), the half-maximal activity concentration (AC50) under setting [1] was 3.98 µM [rising, partial curve].

With `Cc1cc(C)c2c(=O)cc(C(=O)Nc3ccc(C)c(Cl)c3)oc2c1`, under setting [1], the half-maximal activity concentration (AC50) is 2.51 µM [rising, partial curve]. As to `COc1cc(OC)c(NC(=O)NCCn2nnc3cc(S(=O)(=O)N(C)C)ccc32)cc1Cl`, the half-maximal activity concentration (AC50) under setting [1] was 10 µM [falling, partial curve]. Regarding `CCOc1ccc(CCNC(=O)C(CC)n2nc(C)c3c(C)n(-c4ccccc4)nc3c2=O)cc1` (stereo not drawn), the AC50 under setting [1] was 20 µM [falling, partial curve]. `CCCCSCCCNC(=O)C1CCN(Cc2nc(-c3ccc(CC)cc3)oc2C)CC1`: under setting [1], the half-maximal activity concentration (AC50) was 25.1 µM [falling, partial curve]. The same measure, in the same setting: as for `Cc1cc(-c2ccc(S(=O)(=O)Nc3cccc(C)c3C)s2)on1`, the figure is 10 µM [rising, partial curve]. Consider `CCOC(=O)c1c(C)[nH]c(C)c1S(=O)(=O)N1CCC(C(=O)NCc2ccc(F)cc2)CC1`, for which the concentration at half-maximal activity (AC50) was 5.01 µM [rising, single point] (measured here: IkB-luc green channel) and 0.0794 µM [rising, full curve] (measured here: control luc red channel).

As to `COc1ccc(-c2c(C#N)c(SCC(=O)Nc3ccc(C)c(C)c3)nc(C)c2C(=O)Nc2ccc(Cl)cc2)cc1`, under setting [1], the AC50 was 10 µM [falling, partial curve]. The same measure, in the same setting: as for `c1ccc(/C(=N/Nc2nc3ccccc3s2)c2ccccn2)cc1`, the figure is 0.0316 µM [falling, full curve]; as for `O=C(CSc1nnc(-c2ccccc2Br)n1-c1ccccc1)c1ccc(F)cc1`, 25.1 µM [falling, single point]. The same measure, in the same setting: as for `CC(C)Cn1c(N)c(C(=O)NCC2CCCO2)c2nc3ccccc3nc21` (stereo not drawn), the figure is 15.8 µM [falling, partial curve]; as for `O=c1[nH]c(SCc2ccccc2)nc2c1CCCC2`, 1 µM [rising, full curve, poor fit]; as for `CC(C)(C)C1CCc2nc(NC(=O)c3cccc(Cl)c3)sc2C1` (stereo not drawn), 1.26 µM [rising, partial curve]. Regarding `Cn1nnnc1SCCCNCc1cc(Br)ccc1OCc1ccccc1`, under setting [1], the half-maximal activity concentration (AC50) is 12.6 µM [falling, partial curve]. On to `Cc1nc2sccn2c(=O)c1S(=O)(=O)Nc1ccc(N2CCN(C)CC2)cc1`, for which the half-maximal activity concentration (AC50) under setting [1] was 25.1 µM [falling, single point]. On to `N#CC1=C(N)S[C@H](C(=O)C23CC4CC(CC(C4)C2)C3)[C@H]1c1ccncc1`, for which, under setting [1], the AC50 was 25.1 µM [falling, partial curve].
